The data set in a line: peptide made by a vendor (Fmoc solid-phase peptide synthesis). The following applies: whole synthesis, HPLC.

End groups of sequences in plain letters are not given here.

As for TERRRQQLDKDGDGTIDEREIKIWFQNKRAKIK, the “final purity (method not given)” value is given as more than 95%.

The values are drawn from US20050112064A1 (priority 2003, published 2005).
